Source: PubChem BioAssay AID1508597 (Cure First, 2020)
Purpose: 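Genes whose silencing sensitises or protects ovarian cancer cells against rucaparib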 (primary screen). Cells: human ovarian carcinoma lines grown from tumours: OCI-P5x (papillary serous) and OCI-C5x (clear cell). Knock-down reagent: siRNA pool against human genes, 1.25 pmol siRNA per well. Time to read-out: 72 h or 96 h, depending on the cell culture. Challenge: rucaparib 20 µM (about IC30) or vehicle, present until read-out. Read-out: 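ATP luminescence measured at 72 or 96 h according to the culture, then normalised and expressed as percent viability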. Reading the numbers: viability, normalised: higher = more viable cells remaining. Rule for the call: 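Active when normalised viability falls below 80 percent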. Calls: active = viability under 80%; inactive = viability 80% or more.
Here is an unselected part of about 2,100 reagents tested. 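Calls flag viability under 80% in either arm, not effects specific to rucaparib; the reference for percent is not stated.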 Reagent sequences are not shown. Not stated in the record: the 100% reference.

gene symbol | rucaparib or vehicle | cell line | technical replicate | viability, normalised (%) | Outcome
CTPS2 | Rucaparib | OCI-C5x (clear cell) | 1 | 67.8 | active
CTPS2 | Rucaparib | OCI-C5x (clear cell) | 2 | 50.5 | active
CTPS2 | Rucaparib | OCI-C5x (clear cell) | 3 | 81.3 | inactive
CTPS2 | Rucaparib | OCI-P5x (serous) | 1 | 87 | inactive
CTPS2 | Rucaparib | OCI-P5x (serous) | 2 | 106 | inactive
CTPS2 | Rucaparib | OCI-P5x (serous) | 3 | 109 | inactive
CTPS2 | Vehicle | OCI-C5x (clear cell) | 1 | 49.8 | active
CTPS2 | Vehicle | OCI-C5x (clear cell) | 2 | 59 | active
CTPS2 | Vehicle | OCI-C5x (clear cell) | 3 | 69.6 | active
CTPS2 | Vehicle | OCI-P5x (serous) | 1 | 114 | inactive
CTPS2 | Vehicle | OCI-P5x (serous) | 2 | 81.9 | inactive
CTPS2 | Vehicle | OCI-P5x (serous) | 3 | 102 | inactive
PRMT5 | Rucaparib | OCI-C5x (clear cell) | 1 | 47.4 | active
PRMT5 | Rucaparib | OCI-C5x (clear cell) | 2 | 44.6 | active
PRMT5 | Rucaparib | OCI-C5x (clear cell) | 3 | 28.6 | active
PRMT5 | Rucaparib | OCI-P5x (serous) | 1 | 49.6 | active
PRMT5 | Rucaparib | OCI-P5x (serous) | 2 | 47.7 | active
PRMT5 | Rucaparib | OCI-P5x (serous) | 3 | 45 | active
PRMT5 | Vehicle | OCI-C5x (clear cell) | 1 | 43.4 | active
PRMT5 | Vehicle | OCI-C5x (clear cell) | 2 | 34.3 | active
PRMT5 | Vehicle | OCI-C5x (clear cell) | 3 | 49.7 | active
PRMT5 | Vehicle | OCI-P5x (serous) | 1 | 60.2 | active
PRMT5 | Vehicle | OCI-P5x (serous) | 2 | 64.3 | active
PRMT5 | Vehicle | OCI-P5x (serous) | 3 | 75.2 | active
RING1 | Rucaparib | OCI-C5x (clear cell) | 1 | 59 | active
RING1 | Rucaparib | OCI-C5x (clear cell) | 2 | 47.8 | active
RING1 | Rucaparib | OCI-C5x (clear cell) | 3 | 49.3 | active
RING1 | Rucaparib | OCI-P5x (serous) | 1 | 45.9 | active
RING1 | Rucaparib | OCI-P5x (serous) | 2 | 47.3 | active
RING1 | Rucaparib | OCI-P5x (serous) | 3 | 53.3 | active
RING1 | Vehicle | OCI-C5x (clear cell) | 1 | 48 | active
RING1 | Vehicle | OCI-C5x (clear cell) | 2 | 48.4 | active
RING1 | Vehicle | OCI-C5x (clear cell) | 3 | 54.7 | active
RING1 | Vehicle | OCI-P5x (serous) | 1 | 52.6 | active
RING1 | Vehicle | OCI-P5x (serous) | 2 | 61.8 | active
RING1 | Vehicle | OCI-P5x (serous) | 3 | 78 | active
EPHB3 | Rucaparib | OCI-C5x (clear cell) | 1 | 42.9 | active
EPHB3 | Rucaparib | OCI-C5x (clear cell) | 2 | 45.4 | active
EPHB3 | Rucaparib | OCI-C5x (clear cell) | 3 | 51.9 | active
EPHB3 | Rucaparib | OCI-P5x (serous) | 1 | 58.6 | active
EPHB3 | Rucaparib | OCI-P5x (serous) | 2 | 80.5 | inactive
EPHB3 | Rucaparib | OCI-P5x (serous) | 3 | 66.6 | active
EPHB3 | Vehicle | OCI-C5x (clear cell) | 1 | 82.2 | inactive
EPHB3 | Vehicle | OCI-C5x (clear cell) | 2 | 48.8 | active
EPHB3 | Vehicle | OCI-C5x (clear cell) | 3 | 56.3 | active
EPHB3 | Vehicle | OCI-P5x (serous) | 1 | 70.9 | active
EPHB3 | Vehicle | OCI-P5x (serous) | 2 | 40.6 | active
EPHB3 | Vehicle | OCI-P5x (serous) | 3 | 36.3 | active
FEN1 | Rucaparib | OCI-C5x (clear cell) | 1 | 55.3 | active
FEN1 | Rucaparib | OCI-C5x (clear cell) | 2 | 39.9 | active
FEN1 | Rucaparib | OCI-C5x (clear cell) | 3 | 49.5 | active
FEN1 | Rucaparib | OCI-P5x (serous) | 1 | 84.3 | inactive
FEN1 | Rucaparib | OCI-P5x (serous) | 2 | 90.4 | inactive
FEN1 | Rucaparib | OCI-P5x (serous) | 3 | 87.1 | inactive
FEN1 | Vehicle | OCI-C5x (clear cell) | 1 | 69.2 | active
FEN1 | Vehicle | OCI-C5x (clear cell) | 2 | 63.1 | active
FEN1 | Vehicle | OCI-C5x (clear cell) | 3 | 51.6 | active
FEN1 | Vehicle | OCI-P5x (serous) | 1 | 79.2 | active
FEN1 | Vehicle | OCI-P5x (serous) | 2 | 81.1 | inactive
FEN1 | Vehicle | OCI-P5x (serous) | 3 | 75.7 | active
